Some results were stated once for a whole list of compounds, not compound by compound.
Biological target: T1, 20S human immunoproteasome (CT-L activity) (Homo sapiens, UniProt P28062)
T1 construct: purchased Boston Biochem
Test: Inhibition of CT-L activity of the immunoproteasome (Suc-LLVY-AMC fluorogenic substrate)
Type: biochemical
Details: for inhibition of the CT-L activity of the immunoproteasome: compound at 5 μM, % inhibition; for selectivity for the immunoproteasome over the constitutive proteasome: from inhibition at 5 μM of IP vs CP
Method: The computationally selected 13 compounds were tested for their inhibitory activity against the CT-L activity of the immunoproteasome. The identified active compounds were also tested for their inhibitory activity against the CT-L activity of the constitutive proteasome. For the initial activity screening, the selected compounds were dissolved in DMSO and used at a concentration of 5 μM. Epoxomicin ([…]), which reached the 100% inhibition, was used as a positive control. 20S human immunoproteasome and constitutive proteasome (Boston Biochem) were 2-fold diluted in an assay buffer (20 mM Tris/Cl, pH 8.0, 0.5 mM EDTA, 0.035% SDS).^17
Specifically, selected compounds were preincubated with 50 ng/well of the immunoproteasome or constitutive proteasome in a 96-well plate at room temperature for 13 min. 100 μM of Suc-LLVY-AMC, a fluorogenic peptide substrate for the CT-L activity, was then added to the wells. Fluorogenic signals of the free AMC (Ex: 360, Em: 460)^18 were recorded for 90 min. The initial reaction velocities (RFU/min) of each compound were calculated as a percentage of the positive control. All enzyme activity assays were carried out in triplicate.

By UniProt entry, the sequences of proteins in these tests, tags left out. Where a name states a change or a piece, a line headed by the entry shows the natural chain unless it says otherwise.
UniProt P28062: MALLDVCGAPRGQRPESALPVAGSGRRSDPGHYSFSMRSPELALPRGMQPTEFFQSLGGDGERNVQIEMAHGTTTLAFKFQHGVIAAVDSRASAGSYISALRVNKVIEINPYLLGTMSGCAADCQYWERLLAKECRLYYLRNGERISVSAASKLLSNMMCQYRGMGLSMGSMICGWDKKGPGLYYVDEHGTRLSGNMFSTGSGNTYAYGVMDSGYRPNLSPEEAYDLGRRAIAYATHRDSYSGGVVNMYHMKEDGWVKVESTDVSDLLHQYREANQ

Compound | inhibition of the CT-L activity of the immunoproteasome (listed as compound 1, 5 µM) | selectivity for the immunoproteasome over the constitutive proteasome | inhibition of the CT-L activity of the immunoproteasome (listed as compound 3, 5 µM)
Cc1ccc(-c2cc(C(=O)NC[C@@H]3CCCO3)c3cc(CNS(=O)(=O)c4cccc(Cl)c4)ccc3n2)o1 [Compound 1] | 36-85% | highly selective inhibitors for the immunoproteasome | –
Cc1ccc(CSC[C@@H](NC(=O)c2cc(-c3ccccc3)nc3ccccc23)C(=O)NCCCN2CCCC2=O)cc1 [Compound 3] | – | highly selective inhibitors for the immunoproteasome | 36-85%
